In PMC8495398:
These are yes or no findings as the source states them, for the method shown. Binding seen in cells or lysates may run through a third protein.

Molecular target: T1, Plasticity-related gene 1 (PRG-1) protein (rat (endogenous in hippocampus)) (UniProt Q7TMB7)
T1 sequence: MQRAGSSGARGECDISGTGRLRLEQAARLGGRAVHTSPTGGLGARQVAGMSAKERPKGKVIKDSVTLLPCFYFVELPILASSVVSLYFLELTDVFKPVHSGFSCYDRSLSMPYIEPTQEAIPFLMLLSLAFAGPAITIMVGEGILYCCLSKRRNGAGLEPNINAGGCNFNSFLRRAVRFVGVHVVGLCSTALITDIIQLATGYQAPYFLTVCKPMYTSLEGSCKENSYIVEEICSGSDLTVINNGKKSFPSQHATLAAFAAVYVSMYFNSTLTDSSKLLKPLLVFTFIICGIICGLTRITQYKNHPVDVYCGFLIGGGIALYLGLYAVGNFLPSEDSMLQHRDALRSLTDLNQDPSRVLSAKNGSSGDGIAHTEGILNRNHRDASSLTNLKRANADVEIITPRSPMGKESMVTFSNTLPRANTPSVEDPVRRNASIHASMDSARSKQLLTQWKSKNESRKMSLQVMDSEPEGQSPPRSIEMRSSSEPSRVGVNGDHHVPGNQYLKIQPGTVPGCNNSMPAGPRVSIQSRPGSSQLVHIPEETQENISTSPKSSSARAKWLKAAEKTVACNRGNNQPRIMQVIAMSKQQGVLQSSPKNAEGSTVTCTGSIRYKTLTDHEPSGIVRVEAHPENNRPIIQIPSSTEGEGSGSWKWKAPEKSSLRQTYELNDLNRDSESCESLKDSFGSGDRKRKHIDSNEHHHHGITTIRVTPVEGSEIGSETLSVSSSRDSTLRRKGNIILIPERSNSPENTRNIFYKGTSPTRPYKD
Test: co-IP; immunoprecipitation studies told only in the discussion, no figure; which protein was precipitated is not told

binding: no binding
B1: Purinergic P2X7 receptor (receptor, UniProt Q64663 1-595)
chain: MPACCSWNDVFQYETNKVTRIQSVNYGTIKWILHMTVFSYVSFALMSDKLYQRKEPLISSVHTKVKGVAEVTENVTEGGVTKLVHGIFDTADYTLPLQGNSFFVMTNYLKSEGQEQKLCPEYPSRGKQCHSDQGCIKGWMDPQSKGIQTGRCIPYDQKRKTCEIFAWCPAEEGKEAPRPALLRSAENFTVLIKNNIDFPGHNYTTRNILPGMNISCTFHKTWNPQCPIFRLGDIFQEIGENFTEVAVQGGIMGIEIYWDCNLDSWSHRCQPKYSFRRLDDKYTNESLFPGYNFRYAKYYKENGMEKRTLIKAFGVRFDILVFGTGGKFDIIQLVVYIGSTLSYFGLATVCIDLIINTYASTCCRSRVYPSCKCCEPCAVNEYYYRKKCEPIVEPKPTLKYVSFVDEPHIWMVDQQLLGKSLQDVKGQEVPRPQTDFLELSRLSLSLHHSPPIPGQPEEMQLLQIEAVPRSRDSPDWCQCGNCLPSQLPENRRALEELCCRRKPGQCITTSELFSKIVLSREALQLLLLYQEPLLALEGEAINSKLRHCAYRSYATWRFVSQDMADFAILPSCCRWKIRKEFPKTQGQYSGFKYPY
